No constants are given. Whether binding was seen depends on the method and setting. Some results given as binding are weak or reduced against the parent protein; the word gives no strength.

Chains of the proteins cited; added tags and fusions are not shown.
UniProt P32302: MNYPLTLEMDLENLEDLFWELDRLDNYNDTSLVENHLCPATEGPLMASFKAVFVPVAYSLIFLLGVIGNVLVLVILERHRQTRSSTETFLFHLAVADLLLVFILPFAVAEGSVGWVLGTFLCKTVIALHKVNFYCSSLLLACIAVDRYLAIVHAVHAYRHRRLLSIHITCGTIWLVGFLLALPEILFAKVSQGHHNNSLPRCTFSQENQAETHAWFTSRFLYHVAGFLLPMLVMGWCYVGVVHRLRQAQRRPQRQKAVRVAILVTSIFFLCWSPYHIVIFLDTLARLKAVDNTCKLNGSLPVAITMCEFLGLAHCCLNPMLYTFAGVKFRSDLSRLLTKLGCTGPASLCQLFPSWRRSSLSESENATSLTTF

From US20120128688A1 come the findings set out here.

The target of assay [1] is CXCR5 (human) (UniProt P32302). As to the kind of experiment: imaging flow cytometry (Amnis Imagestream) of LNCaP and PC3 cells stained with anti-CXCR5 and anti-CXCL13 antibodies 30 and 60 minutes after 0 or 100 ng/ml CXCL13; signal correlation between CXCR5 and CXCL13. (In flow cytometry, cells or beads pass a laser one at a time.)
Assay [2] deals with CXCR5 (human) (UniProt P32302). Nature of the assay: imaging flow cytometry (figure legend, FIGS. 22A-B).

B1: CXCL13 (ligand)
chain: VLEVYYTSLRCRCVQESSVFIPRRFIDRIQILPRGNGCPRKEIIVWKKNKSIVCVDPQAEWIQRMMEVLRKRSSSTLPVPVFKRKIP
Take B1: the binding entry in the assay with CXCR5 (human) [1] and with CXCR5 (human) [2] was “binds” in each case.
